# Test results taken from PubChem BioAssay AID588590 (National Center for Advancing Translational Sciences (NCATS), 2011).
# The chains behind the UniProt entries cited, without tags or fusion partners. Where a name states a change or a piece, a line headed by the entry shows the natural chain unless it says otherwise.
# UniProt Q9UNA4: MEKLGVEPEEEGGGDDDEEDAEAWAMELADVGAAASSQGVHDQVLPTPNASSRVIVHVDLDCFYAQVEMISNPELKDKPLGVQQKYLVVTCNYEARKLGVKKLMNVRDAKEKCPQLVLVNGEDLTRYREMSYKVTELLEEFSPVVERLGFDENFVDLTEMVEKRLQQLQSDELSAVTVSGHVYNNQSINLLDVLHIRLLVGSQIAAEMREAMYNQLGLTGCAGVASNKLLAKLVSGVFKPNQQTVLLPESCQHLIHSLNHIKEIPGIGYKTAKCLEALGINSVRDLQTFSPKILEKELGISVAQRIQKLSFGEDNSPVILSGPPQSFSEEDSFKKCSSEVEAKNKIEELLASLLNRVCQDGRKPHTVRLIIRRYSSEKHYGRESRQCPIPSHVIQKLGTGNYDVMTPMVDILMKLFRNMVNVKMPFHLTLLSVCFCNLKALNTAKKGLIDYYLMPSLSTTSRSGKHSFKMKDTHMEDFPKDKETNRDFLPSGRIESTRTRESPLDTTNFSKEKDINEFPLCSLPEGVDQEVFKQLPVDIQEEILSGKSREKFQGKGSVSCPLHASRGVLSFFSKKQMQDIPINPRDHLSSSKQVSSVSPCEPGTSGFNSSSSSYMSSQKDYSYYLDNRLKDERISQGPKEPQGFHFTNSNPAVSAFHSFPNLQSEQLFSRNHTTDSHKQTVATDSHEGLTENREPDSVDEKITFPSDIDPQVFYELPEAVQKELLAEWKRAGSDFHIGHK
# The campaign covered roughly 390,000 compounds. About 4,000 (1%) were called active. Inconclusive means that the source gave no clear call. Such entries were picked first, then a sample of the others. The call rests on the fitted dose curve; in most records, active means well fitted inhibition curve with a large enough effect; inconclusive means small, poorly fitted or top-dose-only effect, or another doubt; inactive means no such curve, though single readings can be large or run the other way. Where the call is inconclusive, the potency comes from a doubtful curve fit.
# Biological target: DNA polymerase iota (Homo sapiens) (UniProt Q9UNA4)
# Assay: qHTS for Inhibitors of Polymerase Iota
# Details: Pol iota fluorescent replication assay, 10 min; series mostly up to 115 µM
# In short: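 Pol iota at 10 nM preincubated 15 min with compounds at room temperature; reaction started with fluorescent substrate, 50 nM final. Fluorescence read kinetically at 0 and 10 min; buffer-only wells as negative control.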
# Potency means the concentration at half of the fitted maximal effect.
row,SMILES,Potency
1,CC[C@@]1(C(=O)OC)N[C@H](CN(C)C(=O)C2CCCCC2)[C@@H]2C(=O)N(Cc3ccccc3)C(=O)[C@@H]21,"inconclusive: 22.4 µM [inhibitor, partial curve, poor fit]"
2,Cc1cccc(C(=O)NCc2cn3cccc(C)c3n2)c1,inactive
3,O=C(O)/C(=N/NC(=O)c1ccc(Cl)cc1)c1ccccc1,inactive
4,CCCCNC(=S)N(C)/N=C/c1ccc2c(c1)OCO2,"inconclusive: 89.1 µM [inhibitor, partial curve, poor fit]"
5,Cc1ccc2nc3c(cc(C(=O)NCCc4ccccc4)c(=N)n3CCN3CCOCC3)c(=O)n2c1,"inconclusive: 14.1 µM [inhibitor, partial curve, poor fit]"
6,O=S(=O)(c1ccc(OCC(O)CN2CCc3ccccc3C2)cc1)N1CCOCC1 (stereo not given),"inconclusive: 89.1 µM [inhibitor, single point]"
7,O=C(OCc1cc(=O)n2c(n1)sc1ccccc12)c1ccc(O)cc1,inactive
8,CC1(NC(=O)/C=C/c2nc3ccccc3s2)CCS(=O)(=O)C1 (stereo not given),active: 39.8 µM
9,COc1ccccc1N1CCN(Cc2cc(COC(C)C)c3cccnc3c2O)CC1,inactive
10,O=C(OCC(=O)N1CCCc2ccccc21)c1ccc(Br)o1,inactive
11,Cc1ccc(CNC(=O)C2CCN(S(=O)(=O)c3c(C)noc3/C=C/c3ccccc3F)CC2)o1,"inconclusive: 89.1 µM [inhibitor, single point]"
12,Cc1ccc(C)c(NC(=O)C(NS(=O)(=O)c2ccc3c(c2)CCC(=O)N3)c2ccccc2)c1 (stereo not given),"inconclusive: 79.4 µM [inhibitor, partial curve]"
13,COc1cccc(CNC(=O)C2CCN(c3ncnc4c3nc3n4CCCCC3)CC2)c1,"inconclusive: 56.2 µM [inhibitor, partial curve, poor fit]"
14,Cc1ccc(NC(=O)C(C)c2ccc(-c3ccccc3)c(F)c2)cc1 (stereo not given),"inconclusive: 5.01 µM [inhibitor, full curve, poor fit]"
15,COc1ccc2c(Cl)c(C(=O)N/N=C3\CCCC(=O)C3)sc2c1,"inconclusive: 31.6 µM [inhibitor, single point]"
16,COc1ccc(CN(C)C(=O)Cc2ccc(OC)c(S(=O)(=O)N3CCOCC3)c2)cc1,"inconclusive: 100 µM [inhibitor, single point]"
17,COC(=O)c1ccccc1NC(=O)CSc1nc(N)cc(N)n1,inactive
18,COc1ccc(NS(=O)(=O)c2cc(NC(=O)c3ccccc3F)ccc2N2CCCC2)cc1,"inconclusive: 50.1 µM [inhibitor, partial curve]"
19,CC(=O)n1c2ccccc2c2ccccc21,"inconclusive: 79.4 µM [inhibitor, partial curve]"
20,FC(F)(F)c1cc(-c2ccco2)nc(NCc2ccccc2)n1,"inconclusive: 31.6 µM [inhibitor, single point]"
21,CCN(CC)c1ccc(S(=O)(=O)N2CCOCC2)cc1NC(=O)Cn1nc(C)c([N+](=O)[O-])c1C,"inconclusive: 39.8 µM [inhibitor, single point]"
22,COc1ccc(OCC(=O)Nc2ccccc2Cl)cc1,inactive

row,SMILES,Potency
1,O=C(NCCc1ccc(Cl)cc1)c1ccc(NC2=NC3CS(=O)(=O)CC3S2)cc1 (stereo not given),"inconclusive: 79.4 µM [inhibitor, partial curve, poor fit]"
2,COc1ccccc1CNS(=O)(=O)c1cc(-c2cc(C)no2)ccc1C,"inconclusive: 25.1 µM [inhibitor, partial curve, poor fit]"
3,Cc1nn(CCCC(=O)NCCc2ccc(Cl)cc2)c(=O)c2nn(-c3ccccc3)c(C)c12,"inconclusive: 39.8 µM [inhibitor, single point]"
4,CCCC(=O)Nc1sc2c(c1C(=O)OC)C(C(=O)OC)CC2 (stereo not given),inactive
5,c1ccc(SCCN2CCN(c3ccccc3)CC2)cc1,"inconclusive: 39.8 µM [inhibitor, single point]"
6,CC1CN=C(c2cccn2Cc2ccc(F)cc2Cl)O1 (stereo not given),"inconclusive: 39.8 µM [inhibitor, partial curve, poor fit]"
7,Cc1ccccc1Nc1nc(N)nc(COC(=O)c2ccc([N+](=O)[O-])o2)n1,"inconclusive: 50.1 µM [inhibitor, partial curve, poor fit]"
8,O=C(Cc1cccs1)Nc1ccccc1F,inactive
9,COc1cccc(N2CC(C(=O)Nc3nnc(SCC(=O)Nc4ccc(NC(C)=O)cc4)s3)CC2=O)c1 (stereo not given),"inconclusive: 25.1 µM [inhibitor, single point]"
10,CCN1CCN(c2nc(Nc3ccc(NC(C)=O)cc3)nc(Nc3ccc(NC(C)=O)cc3)n2)CC1,"inconclusive: 20 µM [inhibitor, full curve, poor fit]"
11,COC(=O)/C(=C\Nc1ccc(Oc2ccc(F)cc2F)nc1)NC(=O)c1ccccc1,inactive
12,CS(=O)(=O)N1N=C(c2ccco2)CC1c1ccc(Cl)cc1 (stereo not given),"inconclusive: 89.1 µM [inhibitor, partial curve, poor fit]"
13,Cc1ccc(S(=O)(=O)Oc2ccc(C(c3c(C)[nH][nH]c3=O)c3c(C)[nH][nH]c3=O)cc2)cc1,"inconclusive: 3.98 µM [inhibitor, full curve, poor fit]"
14,O=C(CN1C(=O)S/C(=C/C=C/c2ccccc2)C1=O)Nc1ccc(C(=O)O)cc1,"inconclusive: 31.6 µM [inhibitor, single point]"
15,N#Cc1ccc[n+](CC(=O)c2ccc(F)cc2)c1,inactive
16,O=C(COC(=O)c1cc(S(=O)(=O)NCc2ccccc2)ccc1O)NCc1ccccc1,"inconclusive: 39.8 µM [inhibitor, single point]"
17,Cc1ccc(N2C(=O)CC(Sc3ncn[nH]3)C2=O)cc1C (stereo not given),"inconclusive: 35.5 µM [inhibitor, single point]"
18,O=C(Nc1ccc(S(=O)(=O)Nc2nccs2)cc1)c1cc(=O)[nH]c2ccccc12,"inconclusive: 12.6 µM [inhibitor, partial curve, poor fit]"
19,CC(C)(C)OC(=O)C[C@H]1C/C=C\C[C@H](CC(=O)N[C@H](CO)Cc2ccccc2)C(=O)N[C@H](C(C)(C)C)COC1=O,inactive
20,Cc1cnc(NC(=O)Cc2ccccc2Cl)s1,"inconclusive: 89.1 µM [inhibitor, single point]"
21,COC(=O)[C@@H]1C[C@@]2(O)[C@H](O)[C@H](O)[C@H](O)C[C@H]2N1CC1CC1,"inconclusive: 31.6 µM [inhibitor, single point]"
22,CCC(=O)Nc1cc2[nH]c(=O)cc(C)c2cc1C,inactive

row,SMILES,Potency
1,CCOC(=O)C/C(C)=N/NC(=O)Nc1ccccc1,"inconclusive: 20 µM [inhibitor, partial curve, poor fit]"
2,CCN1CCN(CC(=O)Nc2cc(S(=O)(=O)N(CC)c3ccccc3)ccc2Cl)CC1,"inconclusive: 89.1 µM [inhibitor, single point]"
3,CC(NC(=O)COC(=O)c1cc([N+](=O)[O-])ccc1N1CCOCC1)c1ccccc1 (stereo not given),inactive
4,CCC/C=C1/CCCOC(C(=O)NCC2CC2)(C(F)(F)F)C1 (stereo not given),inactive
5,O=C(/C=C/c1ccc(OC(F)F)cc1)OCC(=O)N1CCN(C(=O)c2ccco2)CC1,"inconclusive: 89.1 µM [inhibitor, single point]"
6,COc1cc2cnc(-c3ccccc3)c(-c3ccc(C(F)(F)F)cc3)c2cc1OC,"inconclusive: 39.8 µM [inhibitor, single point]"
7,COC(=O)c1ccccc1NC(=O)Cn1ncc2c(C)n(Cc3ccc(F)cc3)c(C)c2c1=O,"inconclusive: 89.1 µM [inhibitor, single point]"
8,O=C(NCCCN1CCCC1=O)c1ccc2c(c1)OCO2,"inconclusive: 100 µM [inhibitor, partial curve, poor fit]"
9,CC(=O)c1cccc(Nc2cc(C)nc3nc(-c4ccccc4C)nn23)c1,inactive
10,CCCCc1nn2c(=O)cc(COC(=O)c3ccc(NC(=O)c4cccc(OC)c4)cc3)nc2s1,"inconclusive: 100 µM [inhibitor, partial curve, poor fit]"
11,O=C1CC(c2ccco2)CC(O)=C1C=Nc1ccc(Br)cc1 (stereo not given),"inconclusive: 14.1 µM [inhibitor, partial curve, poor fit]"
12,CCOC(=O)C1(Cc2ccccc2C)CCCN(C(=O)c2ccc(CSC)o2)C1 (stereo not given),inactive
13,Cc1cc(OCC(=O)NNC(=O)CCc2ccccc2)ccc1Br,"inconclusive: 50.1 µM [inhibitor, partial curve, poor fit]"
14,N/C(=N\OC(=O)c1ccc(Br)cc1)c1cccc([N+](=O)[O-])c1,"inconclusive: 50.1 µM [inhibitor, partial curve, poor fit]"
15,O=C(NCc1ccc(/C=N\NC(=O)C(=O)Nc2ccccc2Br)o1)C(=O)Nc1ccccc1,"inconclusive: 10 µM [inhibitor, single point]"
16,NC(=O)C1CCCN(CC(=O)Nc2ccccc2C(=O)NC2CC2)C1 (stereo not given),inactive
17,O=C(C=Cc1cccnc1)c1ccccc1,"inconclusive: 25.1 µM [inhibitor, single point]"
18,CC(C)Cc1c(O)nc(SCC(=O)N2CCCCCC2)[nH]c1=O,inactive
19,CN(C(=O)NCc1noc2ccccc12)c1cccc(Cl)c1,inactive
20,CCC(C(=O)OCC(=O)Nc1ccc2[nH]c(=O)[nH]c2c1)c1ccccc1 (stereo not given),"inconclusive: 28.2 µM [inhibitor, partial curve, poor fit]"
21,COc1cccc(N2CCN(c3ccc4nnc(CCC(=O)Nc5ccc(C)cn5)n4n3)CC2)c1,"inconclusive: 79.4 µM [inhibitor, partial curve, poor fit]"
